{"sequences": {"note": "Amino acid sequences for entries named in this document (tags omitted). Residues count along the entry.", "UniProt Q12923, residues 1279-1883": "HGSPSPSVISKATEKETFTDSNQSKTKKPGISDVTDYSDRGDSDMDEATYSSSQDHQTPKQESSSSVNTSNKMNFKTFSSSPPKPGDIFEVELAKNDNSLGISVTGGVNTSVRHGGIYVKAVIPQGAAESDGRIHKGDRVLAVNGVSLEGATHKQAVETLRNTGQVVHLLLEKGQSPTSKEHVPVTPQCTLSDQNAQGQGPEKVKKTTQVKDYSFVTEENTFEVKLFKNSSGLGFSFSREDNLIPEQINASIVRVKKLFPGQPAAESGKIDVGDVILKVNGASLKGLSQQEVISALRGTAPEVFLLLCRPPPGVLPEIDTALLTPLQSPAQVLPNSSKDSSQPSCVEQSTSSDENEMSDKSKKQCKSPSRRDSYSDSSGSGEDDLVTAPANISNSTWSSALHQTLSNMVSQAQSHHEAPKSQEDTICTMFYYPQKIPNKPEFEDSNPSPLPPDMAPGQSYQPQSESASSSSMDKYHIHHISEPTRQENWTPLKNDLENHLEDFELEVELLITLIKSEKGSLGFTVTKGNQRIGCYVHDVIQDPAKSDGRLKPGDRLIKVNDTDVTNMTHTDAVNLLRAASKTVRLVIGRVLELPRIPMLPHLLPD"}, "source": "patent US6911526B2", "about": "“Compounds that inhibit the interaction between signal-transducing proteins and the GLGF (PDZ/DHR) domain and uses thereof” (The Trustees of Columbia University in the City of New York, priority 1996, dated 2005)", "key": {"[1]": {"target": "in vitro-translated 35S-labeled FAP-1 (from HFAP-10 cDNA) (UniProt Q12923)", "assay": "competition: peptide (1-1000 uM) against GST-Fas for 35S FAP-1"}, "[2]": {"target": "in vitro-translated 35S-labeled FAP-1 (from HFAP-10 cDNA) (UniProt Q12923)", "assay": "competition: acetylated truncated peptides (FIG. 3B) against GST-Fas for 35S FAP-1"}, "[3]": {"target": "in vitro-translated 35S-labeled FAP-1 (from HFAP-10 cDNA) (UniProt Q12923)", "assay": "competition: acetylated peptide against GST-Fas for 35S FAP-1"}}, "note": "These are yes or no findings as the source states them, for the method shown. Some entries that bind do so weakly or less than the wild type.", "data": [{"binder": "DSENSNFRNEIQSLV (N-terminal acetyl)", "note": "[synthetic peptide of the C-terminal 15 amino acids of Fas]", "values": [{"measurement": "binding", "setting": "[1]", "value": "binds"}, {"measurement": "binding", "setting": "[2]", "value": "binds"}]}, {"binder": "IQSLV (N-terminal acetyl)", "note": "[IQSLV (SEQ ID NO: 19), acetylated truncated C-terminal peptide of Fas]", "values": [{"measurement": "binding", "setting": "[3]", "value": "binds"}]}, {"binder": "EIQSLV (N-terminal acetyl)", "note": "[EIQSLV (SEQ ID NO: 20), acetylated truncated C-terminal peptide of Fas]", "values": [{"measurement": "binding", "setting": "[3]", "value": "binds"}]}, {"binder": "NEIQSLV (N-terminal acetyl)", "note": "[NEIQSLV (SEQ ID NO: 21), acetylated truncated C-terminal peptide of Fas]", "values": [{"measurement": "binding", "setting": "[3]", "value": "binds"}]}, {"binder": "RNEIQSLV (N-terminal acetyl)", "note": "[RNEIQSLV (SEQ ID NO: 22), acetylated truncated C-terminal peptide of Fas]", "values": [{"measurement": "binding", "setting": "[3]", "value": "binds"}]}]}
